US20100331545A1, “REGULATOR FOR SIGNALING TOLL-LIKE RECEPTOR, WHICH COMPRISES CATHEPSIN INHIBITOR AS ACTIVE INGREDIENT” (NIPPON CHEMIPHAR CO., LTD., priority 2007, published 2010)

System: rat model of adjuvant arthritis
Assay: Rat adjuvant arthritis, oral NC-2300 compared with alendronate
Type: in vivo
Settings: pQCT day 36
Experimental: NC-2300 was orally administered to a rat model of adjuvant arthritis, and was compared with alendronate in pharmacological test. Rats were injected with complete Freund's adjuvant on day 0. NC-2300, alendronate or vehicle was administered to the rats at the indicated doses daily starting on day 0 up to day 35.
The proximal tibia was radiologically examined (using soft X-rays) on day 36 to measure the effect of NC-2300 or alendronate on periarticular osteoporosis to measure effect of NC-2300 or alendronate on periarticular osteoporosis. Bone mineral density of the proximal tibia assessed by pQCT (day 36).
Assessment for hind paws of adjuvant arthritis rats treated with NC-2300 or vehicle.
Adjuvant arthritis in hind paw administered with NC-2300 or vehicle was evaluated.
Recovery of locomotion activity of arthritic rats by NC-2300 (day 35) was measured.

NCCCC(O)(P(=O)(O)O)P(=O)(O)O [alendronate, reference compound]
periarticular osteoporosis in the proximal tibia (bone mineral density): comparable inhibitory effect
